Measured values: publication PMC4882581, “Characterisation of assembly and ubiquitylation by the RBCC motif of Trim5α” (Scientific Reports, 2016)
These are yes or no findings as the source states them, for the method shown. One block for each substance: values may come before it.

Chains of the proteins cited; added tags and fusions are not shown. Lines headed by an entry give the natural chain unless they say otherwise; changes in a name come on top. A line that says so, or that is headed by a name, gives the form on record, which may keep a tag or linker. Residues count along the entry.
RhT5 1–70 (Trim5α RING domain) (Q0PF16, residues 1-70): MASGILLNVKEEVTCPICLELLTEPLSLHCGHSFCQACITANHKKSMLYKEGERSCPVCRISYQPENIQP
RhT5 88-261dCC E120K/R121D (Q0PF16, form named): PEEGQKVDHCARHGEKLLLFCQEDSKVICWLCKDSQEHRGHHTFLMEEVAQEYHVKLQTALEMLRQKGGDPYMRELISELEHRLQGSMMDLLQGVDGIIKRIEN

Assays:
[1] = target: RhT5 88-261dCC E120K/R121D (Rhesus macaque) (UniProt Q0PF16); experiment: SAXS; serial dilution 60–480 μM (0.75 to 6.0 mg/mL); 10 mM Tris-HCl pH 7.8, 150 mM NaCl, 0.1 mM TCEP; both purified
[2] = target: RhT5 88-261dCC E120K/R121D (Rhesus macaque) (UniProt Q0PF16); experiment: AUC; sedimentation velocity, c(S) analysis, and isotherm of the weight-averaged S fit to a monomer-trimer model (monomer to trimer, RhT5 1–261dCC); 20 °C; 10 mM Tris/HCl pH 7.8, 150 mM NaCl; 50 krpm (RhT5 94–141, RhT5 88–261dCC) or 38 krpm (RhT5 1–261dCC); both purified
[3] = target: RhT5 88-261dCC E120K/R121D (Rhesus macaque) (UniProt Q0PF16); experiment: SEC-MALLS; Superdex 75 10/300 GL (RhT5 1–70, RhT5 88–261dCC) or Superdex S200 Increase 10/300 GL (RhT5 1–261dCC); 10 mM Tris/HCl pH 7.8, 150 mM NaCl, 0.1 mM TCEP; several protein concentrations; both purified
[4] = target: RhT5 88-261dCC E120K/R121D (Rhesus macaque) (UniProt Q0PF16); experiment: AUC; sedimentation velocity, c(S) analysis in SEDFIT, 50 krpm, 20 °C, 10 mM Tris/HCl pH 7.8, 150 mM NaCl; self-association over a series of protein concentrations; both purified
[5] = target: RhT5 1–70 (Trim5α RING domain) (Rhesus macaque) (UniProt Q0PF16); experiment: SEC-MALLS; Superdex 75 10/300 GL (RhT5 1–70, RhT5 88–261dCC) or Superdex S200 Increase 10/300 GL (RhT5 1–261dCC); 10 mM Tris/HCl pH 7.8, 150 mM NaCl, 0.1 mM TCEP; several protein concentrations; both purified

binding [1]: no binding (tested: 60–480 μM)
binding [2]: no binding (tested: 20–80 μM)
binding [3]: no binding
Substance: RhT5 88–261dCC E120K/R121D (from UniProt Q0PF16 88-154; Q0PF16 229-261) (domain or fragment)

binding [4]: no binding (tested: 20-80 μM)
Substance: RhT5 88-261dCC E120K/R121D (from UniProt Q0PF16 88-154; Q0PF16 229-261) (domain or fragment)

binding [5]: no binding
Substance: RhT5 1–70 (Trim5α RING domain) (from UniProt Q0PF16 1-70) (domain or fragment)
